# In patent publication US20110240014A1, “SUBSTRATES FOR DRUG DELIVERY DEVICE AND METHODS OF PREPARING AND USE” (ALEXZA PHARMACEUTICALS, INC., priority 2003, published 2011):
# Entries after “also recorded” stand apart in the source; their conditions may differ. At least one structure is not confirmed: it was looked up by name or label, or the drawing left a doubt.
# Experiment: Vaporization of budesonide film from clean and treated steel foils 304, T-430 and zirconium oxide coated 304; aerosol purity, yield and recovery by HPLC
# Assay type: physicochemical
# Conditions: for Purity of the drug aerosol particles: peak about 350° C.
# Description: Generation of budesonide aerosol from clean and treated steel foils 304 and T-430. […] All foils were dip-coated with a budesonide solution in dichloromethane.
# [1] = 304 substrate coated with zirconium oxide, 0.28 mg applied
# [2] = clean substrate 304, 0.55 mg applied
# [3] = clean substrate T-430, 0.55 mg applied
# [4] = heat treated substrate 304, 0.60 mg applied
# [5] = heat treated substrate T-430, 0.85 mg applied
smiles,measurement,setting,value
CCCC1O[C@@H]2C[C@H]3[C@@H]4CCC5=CC(=O)C=C[C@]5(C)[C@H]4[C@@H](O)C[C@]3(C)[C@]2(C(=O)CO)O1 (stereo partly shown) [budesonide],mass recovered from the filter,[1],0.162 mg
same,percent yield (recovered from the filter),[1],57.8%
same,"total mass recovered from the filter, test apparatus and substrate",[1],0.176 mg
same,Purity of the drug aerosol particles,[1],81.8%
same,vapor purity (in words),"clean T-430 steel foil without heat treatment, compared with 304 (FIG. 11)",improved purities; also recorded: very good purities
same,"amount recovered from the test apparatus, and substrate (in words)",[2],negligible amount
same,mass recovered from the filter,[2],0.067 mg
same,percent yield (recovered from the filter),[2],12.7%
same,Purity of the drug aerosol particles,[2],23.1%
same,mass recovered from the filter,[3],0.37 mg
same,percent yield (recovered from the filter),[3],68.5%
same,"total mass recovered from the filter, test apparatus and substrate",[3],0.44 mg
same,Purity of the drug aerosol particles,[3],73.3%
same,mass recovered from the filter,[4],0.373 mg
same,percent yield (recovered from the filter),[4],62%
same,"total mass recovered from the filter, test apparatus and substrate",[4],0.373 mg
same,Purity of the drug aerosol particles,[4],71.6%
same,mass recovered from the filter,[5],0.47 mg
same,percent yield (recovered from the filter),[5],55.5%
same,"total mass recovered from the filter, test apparatus and substrate",[5],0.472 mg
same,Purity of the drug aerosol particles,[5],66.9.9%
same,vapor purity (in words),zirconium oxide coated steel foil 304 (FIG. 11),very good vapor purities
